The list shows a part of the results. These are further read-outs of the screen, such as a control signal, another cell line or another target. No call is given for them. Most of these compounds were active or inconclusive in the main read-out, so they are no random draw. The note in brackets gives the kind of curve behind each potency; many fits are weak.
Experiment: qHTS Assay for Modulators of Lamin A Splicing
Details: HeLa LMNA splicing GFP/RFP minigene ratio, 48 h
In short: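 Read-out is the ratio of GFP to DsRed2 object intensity, acquired by 488 nm laser-scanning cytometry on HeLa lamin A-EGFP minigene reporter cells. Compound incubation 48 hrs at 37 °C in Opti-MEM with 2% FBS; DMSO 0.5% final.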

[1] = measured here: RFP viability control channel
[2] = measured here: GFP splicing reporter channel

SMILES | AC50 [1] | AC50 [2]
CCOC(=O)C1=C(CNCc2ccc(C)cc2)NC(=O)NC1c1ccc(OC)cc1 (configuration not stated) | 10 µM [rising, partial curve, poor fit] | 
CCC(C)/C(C)=N/NC(=O)c1ccc(CSc2nc3ccccc3s2)cc1 (configuration not stated) | 35.5 µM [rising, single point] | 11.2 µM [rising, partial curve]
COc1ccccc1/C=C/C(=O)OCC(=O)Nc1cc(C(F)(F)F)ccc1N1CCOCC1 | 12.6 µM [rising, partial curve] | 12.6 µM [rising, single point]
COc1ccc(C2=NOC(C(=O)NCc3ccccc3)C2)cc1 (configuration not stated) | 3.55 µM [falling, full curve] | 3.98 µM [falling, full curve]
Cc1sc2cc3c(c(C(=O)c4ccccc4)[n+]2c1C)-c1cccc2cccc-3c12 | 7.94 µM [rising, partial curve] | 1.58 µM [rising, full curve]
N#CCSc1nnc(COc2ccc3ccccc3c2)o1 | 10 µM [rising, partial curve, poor fit] | 
Cc1cccc2sc(NC(=O)c3cc(S(=O)(=O)N(C)C)ccc3N3CCCC3)nc12 | 35.5 µM [rising, single point] | 31.6 µM [rising, single point]
O=C(Cn1ccc2ccccc2c1=O)Nc1ccc2c(c1)OCO2 | 17.8 µM [rising, partial curve, poor fit] | 
CN(C)S(=O)(=O)c1ccc(S(=O)(=O)Nc2ccc3c(c2)oc2ccccc23)cc1 | 28.2 µM [rising, single point] | 
Cc1cc(C)n2nc(C(=O)Nc3ccc4c(c3)CCC4)nc2n1 |  | 35.5 µM [falling, partial curve]
Cc1cc(NC(=O)/C=C/C(=O)N(CC(=O)NC2CCCC2)c2cccc3ccccc23)no1 | 35.5 µM [falling, single point] | 15.8 µM [falling, single point]
O=C1c2ccccc2C(=O)c2c1ccc1c(=O)n(C3CCCCC3)[nH]c21 | 7.94 µM [rising, partial curve] | 
COc1ccc(NC(=O)/C(C#N)=C\C=C\c2ccco2)cc1 | 11.2 µM [rising, single point] | 
CCS(=O)(=O)N1CCN(c2nc(-c3ccccc3)cs2)CC1 | 4.47 µM [rising, full curve, poor fit] | 
CCOc1ccc(C(c2c(O)cc(C)n(CCOC)c2=O)N2CCN(c3ccccc3F)CC2)cc1 (configuration not stated) | 0.158 µM [rising, full curve, poor fit] | 0.355 µM [rising, partial curve, poor fit]

Full records, quoted from the list:
COc1ccc(C2=NOC(C(=O)NCc3ccccc3)C2)cc1 (configuration not stated) as listed: AC50 [1]: 3.55 µM [falling, full curve]; AC50 [2]: 3.98 µM [falling, full curve]
CCOc1ccc(C(c2c(O)cc(C)n(CCOC)c2=O)N2CCN(c3ccccc3F)CC2)cc1 (configuration not stated) as listed: AC50 [1]: 0.158 µM [rising, full curve, poor fit]; AC50 [2]: 0.355 µM [rising, partial curve, poor fit]
